Measurements reported in PubChem BioAssay AID1259308 (NCATS, 2017).
Screen: 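Knock-downs that increase output of a recombinant reporter protein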 (primary screen). System: human HEK293 embryonic kidney cells stably expressing firefly luciferase (HEK-CMV-Luc2-Hygro). Reagents: single siRNA against human genes, 0.8 pmol siRNA per well. Time to read-out: 72 h. Detection: 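Reporter luminescence and viable-cell signal on separate replicate plates, given as percent of non-targeting control and median/MAD z-scores, plus per-cell luciferase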. Scale: total luciferase, z-score: higher = more reporter protein produced. Call rule: 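Active when the median/MAD z-score for overall luciferase is greater than 3; a gene was taken forward for validation with new siRNAs if at least two of its three siRNAs passed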. Meaning of the calls: active = raised luciferase; inactive = no rise.
Here is one part, drawn at random, of about 59,000 reagents. About 1,510 of them (2.6%) count as active. 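Calls use total luciferase alone and ignore viability, so some active siRNAs may act by altering cell number.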 Unmarked entries are inactive. Reagents against one gene are numbered here. Further read-outs or replicates are left out here. No sequences are given here.

gene | reagent no. | total luciferase, z-score
UGT2B7 (UDP glucuronosyltransferase family 2 member B7) | 1 | 0.0739
UGT2B7 (UDP glucuronosyltransferase family 2 member B7) | 2 | 0.227
UGT2B7 (UDP glucuronosyltransferase family 2 member B7) | 3 | 0.515
VIM (vimentin) | 1 | 1.41
VIM (vimentin) | 2 | 0.567
VIM (vimentin) | 3 | 0.266
RPS6KC1 (ribosomal protein S6 kinase C1) | 1 | 0.837
RPS6KC1 (ribosomal protein S6 kinase C1) | 2 | 0.161
RPS6KC1 (ribosomal protein S6 kinase C1) | 3 | 0.747
FBXW8 (F-box and WD repeat domain containing 8) | 1 | 0.657
FBXW8 (F-box and WD repeat domain containing 8) | 2 | -0.413
FBXW8 (F-box and WD repeat domain containing 8) | 3 | 0.446
BUD13 (BUD13 spliceosome associated protein) | 1 | 1.46
BUD13 (BUD13 spliceosome associated protein) | 2 | -0.597
BUD13 (BUD13 spliceosome associated protein) | 3 | -0.478

A run of entries from the list above, for reference:
gene | reagent no. | total luciferase, z-score
UGT2B7 (UDP glucuronosyltransferase family 2 member B7) | 3 | 0.515
VIM (vimentin) | 1 | 1.41

Further reagents:
gene | reagent no. | total luciferase, z-score
SYCE1 (synaptonemal complex central element protein 1) | 1 | 1.17
SYCE1 (synaptonemal complex central element protein 1) | 2 | -0.184
SYCE1 (synaptonemal complex central element protein 1) | 3 | -0.0293
TSLIG3C (tRNA splicing ligase complex subunit 3C) | 1 | -1.25
TSLIG3C (tRNA splicing ligase complex subunit 3C) | 2 | 1.55
TSLIG3C (tRNA splicing ligase complex subunit 3C) | 3 | 1.22
MS4A6E (membrane spanning 4-domains A6E) | 1 | -1.03
MS4A6E (membrane spanning 4-domains A6E) | 2 | -0.531
MS4A6E (membrane spanning 4-domains A6E) | 3 | -0.533
